# PubChem BioAssay AID504793 – Drosophila RNAi Screening Center – 2011
# Screen: 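Whole-genome screen for parts of the DNA damage checkpoint at G2/M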 (primary screen)
# Cell system: Drosophila S2R+ cells
# Knock-down reagent: long dsRNA against Drosophila genes, about 0.25 µg dsRNA per well
# Timing: 4 days of dsRNA, then 4 hours of drug before read-out
# Challenge: doxorubicin 0.5 µM for 4 hours to cause double-strand breaks, in cells also given a low, harmless dose of dsRNA against nbs to sensitise the assay
# Read-out: 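Per-well count of mitotic cells stained for phospho-histone H3 after doxorubicin exposure, used as mitotic index; counts are raw and not normalised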
# Reading the numbers: mitotic cells: higher = more cells in mitosis, weaker G2 arrest
# Active means: 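a call needs confirmation in secondary tests, with other dsRNAs and a check of mitotic timing without damage, not just a high primary count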
# Meaning of the calls: active = confirmed in follow-up tests; inactive = not confirmed
# The screen tested about 23,000 reagents; this is an unselected part of those with a known target gene and a result. Over the whole deposit, 62 (0.27%) are marked active. 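Calls come from follow-up tests whose scores are not deposited, so confirmed genes may have low counts here; counts are not normalised per plate.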 Raw values vary from plate to plate and are shown uncorrected. A plus sign joins genes that one reagent is predicted to hit. Reagent sequences are not shown.
gene,dsRNA,"mitotic cells, replicate 1",outcome
muc,DRSC02832,5,inactive
muc,DRSC21940,23,inactive
muc,DRSC23834,18,inactive
Ras85D,DRSC16814,5,inactive
Ras85D,DRSC39132,8,inactive
Uev1A,DRSC09763,9,inactive
CG8243,DRSC07122,4,inactive
CG8243,DRSC23414,7,inactive
CG13871,DRSC06430,3,inactive
CG13871,DRSC27979,8,inactive
COX8,DRSC11814,9,inactive
COX8,DRSC28975,4,inactive
peng,DRSC20583,7,inactive
peng,DRSC29638,6,inactive
CG42542,DRSC15549,7,inactive
CG42542,DRSC22264,17,inactive
CG42542,DRSC26522,6,inactive
CG42542,DRSC26676,5,inactive
CG7328,DRSC10812,7,inactive
lic,DRSC20347,10,inactive
drongo,DRSC00814,5,inactive
drongo,DRSC25074,8,inactive
Hmbs,DRSC08632,3,inactive
CG3222,DRSC10355,3,inactive
ReepB,DRSC07150,5,inactive
ReepB,DRSC27133,6,inactive
CG14689,DRSC14912,4,inactive
CG14689,DRSC28117,6,inactive
ZAP3,DRSC17852,6,inactive
ZAP3,DRSC17853,9,inactive
ZAP3,DRSC18249,17,inactive
Gr22e,DRSC20912,5,inactive
Ugt37A3,DRSC15937,8,inactive
CG11474,DRSC04112,3,inactive
nop5,DRSC03582,7,inactive
dtr,DRSC01847,12,inactive
CG32121,DRSC09265,14,inactive
CG14126 (retired record),DRSC10130,4,inactive
CG14126 (retired record),DRSC28859,10,inactive
Tsp42Eh,DRSC06190,4,inactive
Echs1,DRSC06999,7,inactive
lz,DRSC18790,8,inactive
lz,DRSC22302,7,inactive
lz,DRSC25157,9,inactive
CG30161,DRSC22141,5,inactive
CG18754,DRSC15387,9,inactive
AsnS,DRSC11468,10,inactive
Alg14,DRSC19983,5,inactive
CG5107,DRSC15716,5,inactive
CG14417,DRSC18638,10,inactive
dmpd,DRSC06092,7,inactive
CG9062,DRSC07327,8,inactive
CG9062,DRSC27558,10,inactive
Cp15,DRSC11118,6,inactive
Cp15,DRSC28629,7,inactive
CG11668,DRSC14341,7,inactive
Pdh,DRSC11249,8,inactive
Pdh,DRSC26995,6,inactive
ais,DRSC10523,8,inactive
ais,DRSC25460,1,inactive
Tsp66A + CG42661 + CG42660,DRSC10233,8,inactive
krimp,DRSC06578,9,inactive
Polr3A,DRSC19766,5,inactive
Psc,DRSC07518,5,inactive
Psc,DRSC29016,10,inactive
Cpr49Aa,DRSC07197,3,inactive
CG32243,DRSC08105,16,inactive
CG46385,DRSC06557,10,inactive
CG46385,DRSC25794,6,inactive
EMC7,DRSC07162,5,inactive
CR11386 + CR33222,DRSC17781,6,inactive
CR11386 + CR33222,DRSC23991,4,inactive

5 successive records from above:
gene,dsRNA,"mitotic cells, replicate 1",outcome
CG13871,DRSC06430,3,inactive
CG13871,DRSC27979,8,inactive
COX8,DRSC11814,9,inactive
COX8,DRSC28975,4,inactive
peng,DRSC20583,7,inactive

The listing continues.
gene,dsRNA,"mitotic cells, replicate 1",outcome
CG5756,DRSC06950,5,inactive
CG5756,DRSC28245,7,inactive
CG15561,DRSC15100,15,inactive
CG15561,DRSC24085,11,inactive
MED25,DRSC22981,15,inactive
MED25,DRSC25776,8,inactive
AsnRS,DRSC01990,2,inactive
aux,DRSC12161,2,inactive
aux,DRSC28178,1,inactive
CG7966,DRSC16356,7,inactive
Ask1,DRSC16789,7,inactive
Ask1,DRSC21697,9,inactive
CG15212,DRSC10212,6,inactive
CG14658,DRSC12244,2,inactive
ACC,DRSC06059,8,inactive
ACC,DRSC07249,7,inactive
Dyro,DRSC10598,3,inactive
Dyro,DRSC25276,4,inactive
Amacr,DRSC03198,5,inactive
CG12814,DRSC14552,8,inactive
CG12814,DRSC14553,11,inactive
Gr92a,DRSC21631,12,inactive
OtopLc,DRSC18082,5,inactive
OtopLc,DRSC18083,11,inactive
OtopLc,DRSC18132,7,inactive
OtopLc,DRSC25719,4,inactive
OtopLc,DRSC25756,2,inactive
OtopLc,DRSC28477,1,inactive
Ran-like,DRSC10918,5,inactive
CG7950 + Rpp14a,DRSC16353,12,inactive
CG7950 + Rpp14a,DRSC28664,1,inactive
CG31953 (retired record) + gkt,DRSC00709,1,inactive
CG14253,DRSC14748,6,inactive
Ero1L,DRSC08660,9,inactive
Idgf3,DRSC03351,6,inactive
CG31600,DRSC22541,7,inactive
CG31600,DRSC30096,1,inactive
CG4213,DRSC00641,4,inactive
